Experimental data: PubChem BioAssay AID1159591 (NIAID, 2016)
The deposit covers 756 reagents; shown is an unselected part. In the full data, 130 (17%) are marked active. 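Active calls include both lower and higher Tnf reporter signal.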 The numbers tell different reagents against one gene apart. Not given: the amount of reagent.

Aim: 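Effects of TLR pathway gene knock-down on R848-induced Tnf reporter in macrophages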
System: mouse RAW264.7 G9 macrophage reporter clone (GFP-p65, Tnf promoter-mCherry)
Reagent: single siRNA against mouse genes
Timing: cells assayed 48 to 72 hours after siRNA transfection; R848 for 16 hours before fixing
Conditions: R848 (TLR7/8 agonist) for 16 hours before fixation; dose not given
Read-out: 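mCherry Tnf promoter reporter in nuclei imaged after 16 hours of R848, background removed, robust z relative to non-targeting controls using plate median and MAD, replicate average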
Reading the numbers: mean Tnf reporter z-score: higher = stronger Tnf promoter reporter signal than controls
Hit rule: 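Absolute z above 1, 1.5, 2 or 2.5 scores 25 up to 100; no stated active threshold; in practice calls fall at roughly z ≤ -1.5 or z ≥ 1.5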
Calls: active = reporter clearly up or down; inactive = little reporter change

gene symbol | reagent no. | mean Tnf reporter z-score | outcome
Elf4 | 1 | -0.866 | inactive
Elf4 | 2 | -1.34 | inactive
Elf4 | 3 | -2.89 | active
Elf4 | 4 | 0.0408 | inactive
Elf4 | 5 | -1.43 | inactive
Elf4 | 6 | 1.4 | inactive
Casp8 | 1 | 0.344 | inactive
Casp8 | 2 | -1.14 | inactive
Casp8 | 3 | -0.229 | inactive
Casp8 | 4 | -0.543 | inactive
Casp8 | 5 | -0.155 | inactive
Casp8 | 6 | 0.502 | inactive
Ets1 | 1 | 0.183 | inactive
Ets1 | 2 | 0.883 | inactive
Ets1 | 3 | -1.09 | inactive
Ets1 | 4 | 1.59 | active
Ets1 | 5 | 0.262 | inactive
Ets1 | 6 | -0.98 | inactive
Mapkapk2 | 1 | -2.77 | active
Mapkapk2 | 2 | 0.511 | inactive
Mapkapk2 | 3 | -1.03 | inactive
Mapkapk2 | 4 | -0.0907 | inactive
Mapkapk2 | 5 | 1.39 | inactive
Mapkapk2 | 6 | 0.022 | inactive
Myd88 | 1 | -1.94 | active
Myd88 | 2 | -2.28 | active
Myd88 | 3 | -1.95 | active
Myd88 | 4 | -2.54 | active
Myd88 | 5 | -2.46 | active
Myd88 | 6 | -0.0764 | inactive
Tlr4 | 1 | -0.353 | inactive
Tlr4 | 2 | 0.556 | inactive
Tlr4 | 3 | -1 | inactive
Tlr4 | 4 | 1.38 | inactive
Tlr4 | 5 | 0.626 | inactive
Tlr4 | 6 | 1.08 | inactive
Pik3r1 | 1 | -1.59 | active
Pik3r1 | 2 | -0.167 | inactive
Pik3r1 | 3 | -0.178 | inactive
Pik3r1 | 4 | 0.869 | inactive
Pik3r1 | 5 | -1.13 | inactive
Pik3r1 | 6 | -1.49 | inactive
Mapk3 | 1 | -1.3 | inactive
Mapk3 | 2 | 0.901 | inactive
Mapk3 | 3 | -0.152 | inactive
Mapk3 | 4 | -0.125 | inactive
Mapk3 | 5 | -0.911 | inactive
Mapk3 | 6 | 0.772 | inactive
Il6 | 1 | -0.531 | inactive
Il6 | 2 | 0.113 | inactive
Il6 | 3 | 0.747 | inactive
Il6 | 4 | -0.263 | inactive
Il6 | 5 | -0.00105 | inactive
Il6 | 6 | 0.787 | inactive
Dab2ip | 1 | 0.385 | inactive
Dab2ip | 2 | -0.0188 | inactive
Dab2ip | 3 | 1.59 | active
Dab2ip | 4 | -2.7 | active
Dab2ip | 5 | -1.09 | inactive
Dab2ip | 6 | -0.0215 | inactive
Ptpn6 | 1 | 0.886 | inactive
Ptpn6 | 2 | 0.692 | inactive
Ptpn6 | 3 | -0.911 | inactive
Ptpn6 | 4 | -0.103 | inactive
Ptpn6 | 5 | -1.08 | inactive
Ptpn6 | 6 | -2.99 | active
Tlr2 | 1 | 0.0227 | inactive
Tlr2 | 2 | -0.222 | inactive
Tlr2 | 3 | 1.26 | inactive
Tlr2 | 4 | 0.885 | inactive
Tlr2 | 5 | -0.861 | inactive
Tlr2 | 6 | 1.09 | inactive
Nfkbib | 1 | -0.537 | inactive
Nfkbib | 2 | -0.691 | inactive
Nfkbib | 3 | 0.999 | inactive
Nfkbib | 4 | -0.813 | inactive
Nfkbib | 5 | -0.184 | inactive
Nfkbib | 6 | -0.837 | inactive
Ly86 | 1 | 0.176 | inactive
Ly86 | 2 | -0.727 | inactive
Ly86 | 3 | -0.406 | inactive
Ly86 | 4 | 0.595 | inactive
Ly86 | 5 | 1.52 | active
Ly86 | 6 | -1.23 | inactive
Tlr6 | 1 | 0.502 | inactive
Tlr6 | 2 | 0.768 | inactive
Tlr6 | 3 | -1.34 | inactive
Tlr6 | 4 | 0.553 | inactive
Tlr6 | 5 | 0.827 | inactive
Tlr6 | 6 | 0.104 | inactive

Reformatted: entries from further up
Elf4 #1
- mean Tnf reporter z-score: -0.866
- outcome: inactive

Elf4 #2
- mean Tnf reporter z-score: -1.34
- outcome: inactive

Elf4 #3
- mean Tnf reporter z-score: -2.89
- outcome: active

Elf4 #4
- mean Tnf reporter z-score: 0.0408
- outcome: inactive

Elf4 #5
- mean Tnf reporter z-score: -1.43
- outcome: inactive

Elf4 #6
- mean Tnf reporter z-score: 1.4
- outcome: inactive

Casp8 #1
- mean Tnf reporter z-score: 0.344
- outcome: inactive

Casp8 #2
- mean Tnf reporter z-score: -1.14
- outcome: inactive

Casp8 #3
- mean Tnf reporter z-score: -0.229
- outcome: inactive

Casp8 #4
- mean Tnf reporter z-score: -0.543
- outcome: inactive

Casp8 #5
- mean Tnf reporter z-score: -0.155
- outcome: inactive

Casp8 #6
- mean Tnf reporter z-score: 0.502
- outcome: inactive

Ets1 #1
- mean Tnf reporter z-score: 0.183
- outcome: inactive

Ets1 #2
- mean Tnf reporter z-score: 0.883
- outcome: inactive

Ets1 #3
- mean Tnf reporter z-score: -1.09
- outcome: inactive

Ets1 #4
- mean Tnf reporter z-score: 1.59
- outcome: active

Ets1 #5
- mean Tnf reporter z-score: 0.262
- outcome: inactive

Ets1 #6
- mean Tnf reporter z-score: -0.98
- outcome: inactive

Mapkapk2 #1
- mean Tnf reporter z-score: -2.77
- outcome: active

The results go on.
gene symbol | reagent no. | mean Tnf reporter z-score | outcome
Arf6 | 1 | 0.0542 | inactive
Arf6 | 2 | 0.641 | inactive
Arf6 | 3 | -0.27 | inactive
Arf6 | 4 | 0.953 | inactive
Arf6 | 5 | 0.705 | inactive
Arf6 | 6 | 0.217 | inactive
Traf3 | 1 | 0.00498 | inactive
Traf3 | 2 | -1.1 | inactive
Traf3 | 3 | -0.844 | inactive
Traf3 | 4 | -0.274 | inactive
Traf3 | 5 | -1.37 | inactive
Traf3 | 6 | 0.49 | inactive
Sigirr | 1 | 0.534 | inactive
Sigirr | 2 | -1.4 | inactive
Sigirr | 3 | -0.08 | inactive
Sigirr | 4 | -1.38 | inactive
Sigirr | 5 | -0.843 | inactive
Sigirr | 6 | 0.892 | inactive
Irf3 | 1 | 1.88 | active
Irf3 | 2 | 0.182 | inactive
Irf3 | 3 | -2.7 | active
Irf3 | 4 | -1.71 | active
Irf3 | 5 | -0.393 | inactive
Irf3 | 6 | 1.15 | inactive
Mapk13 | 1 | -2.22 | active
Mapk13 | 2 | -1.69 | active
Mapk13 | 3 | -0.731 | inactive
Mapk13 | 4 | -0.889 | inactive
Mapk13 | 5 | -0.405 | inactive
Mapk13 | 6 | -0.49 | inactive
Mapk12 | 1 | 0.522 | inactive
Mapk12 | 2 | -0.842 | inactive
Mapk12 | 3 | -1.61 | active
Mapk12 | 4 | 0.63 | inactive
Mapk12 | 5 | 0.171 | inactive
Mapk12 | 6 | -1.57 | active
Tlr8 | 1 | 0.944 | inactive
Tlr8 | 2 | 0.327 | inactive
Tlr8 | 3 | -0.651 | inactive
Tlr8 | 4 | 0.0707 | inactive
Tlr8 | 5 | -0.468 | inactive
Tlr8 | 6 | -0.468 | inactive
Atf2 | 1 | -2.48 | active
Atf2 | 2 | -1.83 | active
Atf2 | 3 | -0.0815 | inactive
Atf2 | 4 | 0.388 | inactive
Atf2 | 5 | -1.81 | active
Atf2 | 6 | -0.577 | inactive
Nfkb1 | 1 | -0.9 | inactive
Nfkb1 | 2 | -2.2 | active
Nfkb1 | 3 | -0.441 | inactive
Nfkb1 | 4 | -0.497 | inactive
Nfkb1 | 5 | -1.4 | inactive
Nfkb1 | 6 | -0.671 | inactive
